The record followed here is article PMC2787623.

No constants are given. Whether binding was seen depends on the method and setting. Some entries that bind do so weakly or less than the wild type.

The assay addresses native enamel matrix proteins (amelogenin) from bovine (Bos taurus) (Bos taurus (endogenous in enamel of unerupted teeth)) (UniProt P02817). The assay can be described thus: dynamic light scattering + atomic force microscopy; native enamel protein extracts of four species; diameters of supramolecular assemblies (nanospheres) compared; AFM in fluid on mica, 40 mM Tris pH 8.0; conditions of DLS not told.

B1: native enamel matrix proteins (amelogenin) from bovine (Bos taurus) (protein, UniProt P02817 17-213)
chain: MPLPPHPGHPGYINFSYEVLTPLKWYQSMIRHPYPSYGYEPMGGWLHHQIIPVVSQQTPQNHALQPHHHIPMVPAQQPVVPQQPMMPVPGQHSMTPTQHHQPNLPLPAQQPFQPQSIQPQPHQPLQPHQPLQPMQPMQPLQPLQPLQPQPPVHPIQPLPPQPPLPPIFPMQPLPPMLPDLPLEAWPATDKTKREEVD
B1: the binding result is given as “binds”.
